Results deposited as PubChem BioAssay AID1259424 (University of Nebraska Medical Center, 2018)

Assay: 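Seek colon cancer survival genes behaving like KSR1, using a six-gene signature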 (primary screen)
Cell system: human HCT116 colon cancer cells
Knock-down reagent: siRNA pool against human genes, 50 nM
Read-out: 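Six signature mRNAs by branched-DNA multiplex assay, scaled to two housekeeping genes and non-targeting median, log2; matched to mean KSR1 knockdown profile by Pearson correlation and euclidean distance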
Scale: mean correlation with KSR1 profile: higher = expression change more like KSR1 knockdown; mean distance from KSR1 profile: higher = expression change less like KSR1 knockdown
Here is a random part of about 14,000 reagents tested. 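Higher correlation or smaller distance means closer resemblance to KSR1 loss; control wells, including KSR1 knockdowns, recur on many plates.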 Not all columns of the deposit are shown. Not given: the time to read-out.

{"gene symbol": "PACSIN1 (GeneID 29993)", "mean correlation with KSR1 profile": 0.0886, "mean distance from KSR1 profile": 1.31}
{"gene symbol": "TTC28 (GeneID 23331)", "mean correlation with KSR1 profile": 0.744, "mean distance from KSR1 profile": 3.16}
{"gene symbol": "PDX1 (GeneID 3651)", "mean correlation with KSR1 profile": -0.0809, "mean distance from KSR1 profile": 1.9}
{"gene symbol": "HOXB4 (GeneID 3214)", "mean correlation with KSR1 profile": -0.162, "mean distance from KSR1 profile": 2.18}
{"gene symbol": "B2M (GeneID 567)", "mean correlation with KSR1 profile": 0.206, "mean distance from KSR1 profile": 2.51}
{"gene symbol": "CDK5R1 (GeneID 8851)", "mean correlation with KSR1 profile": -0.275, "mean distance from KSR1 profile": 2.93}
{"gene symbol": "KPNA2 (GeneID 3838)", "mean correlation with KSR1 profile": -0.68, "mean distance from KSR1 profile": 2.83}
{"gene symbol": "ENOSF1 (GeneID 55556)", "mean correlation with KSR1 profile": -0.186, "mean distance from KSR1 profile": 4.09}
{"gene symbol": "SYNCRIP (GeneID 10492)", "mean correlation with KSR1 profile": 0.816, "mean distance from KSR1 profile": 1.1}
{"gene symbol": "GPR45 (GeneID 11250)", "mean correlation with KSR1 profile": 0.614, "mean distance from KSR1 profile": 2.08}
{"gene symbol": "GANAB (GeneID 23193)", "mean correlation with KSR1 profile": -0.581, "mean distance from KSR1 profile": 2.53}
{"gene symbol": "TRRAP (GeneID 8295)", "mean correlation with KSR1 profile": 0.601, "mean distance from KSR1 profile": 2.82}
{"gene symbol": "INSAF (retired record) (GeneID 3637)", "mean correlation with KSR1 profile": -0.343, "mean distance from KSR1 profile": 2.46}
{"gene symbol": "FZD7 (GeneID 8324)", "mean correlation with KSR1 profile": 0.683, "mean distance from KSR1 profile": 4.84}
{"gene symbol": "SOX18 (GeneID 54345)", "mean correlation with KSR1 profile": 0.475, "mean distance from KSR1 profile": 2.21}
{"gene symbol": "BRF1 (GeneID 2972)", "mean correlation with KSR1 profile": -0.146, "mean distance from KSR1 profile": 3.96}
{"gene symbol": "PLEKHG3 (GeneID 26030)", "mean correlation with KSR1 profile": -0.337, "mean distance from KSR1 profile": 3.01}
{"gene symbol": "ZNF532 (GeneID 55205)", "mean correlation with KSR1 profile": 0.56, "mean distance from KSR1 profile": 1.53}
{"gene symbol": "MIF4GD (GeneID 57409)", "mean correlation with KSR1 profile": 0.146, "mean distance from KSR1 profile": 2.82}
{"gene symbol": "DPH2 (GeneID 1802)", "mean correlation with KSR1 profile": 0.0351, "mean distance from KSR1 profile": 3.66}
{"gene symbol": "BPIFA4P (GeneID 317716)", "mean correlation with KSR1 profile": -0.394, "mean distance from KSR1 profile": 3.52}
{"gene symbol": "YEATS4 (GeneID 8089)", "mean correlation with KSR1 profile": -0.729, "mean distance from KSR1 profile": 1.67}
{"gene symbol": "MAGEC2 (GeneID 51438)", "mean correlation with KSR1 profile": -0.134, "mean distance from KSR1 profile": 1.72}
{"gene symbol": "NDUFB9 (GeneID 4715)", "mean correlation with KSR1 profile": 0.438, "mean distance from KSR1 profile": 1.15}
{"gene symbol": "MPPED2 (GeneID 744)", "mean correlation with KSR1 profile": -0.462, "mean distance from KSR1 profile": 1.9}
{"gene symbol": "VAT1L (GeneID 57687)", "mean correlation with KSR1 profile": 0.155, "mean distance from KSR1 profile": 2.01}
{"gene symbol": "PPM1B (GeneID 5495)", "mean correlation with KSR1 profile": -0.0657, "mean distance from KSR1 profile": 3.35}
{"gene symbol": "P2RY4 (GeneID 5030)", "mean correlation with KSR1 profile": 0.563, "mean distance from KSR1 profile": 2.41}
{"gene symbol": "GABRA3 (GeneID 2556)", "mean correlation with KSR1 profile": 0.055, "mean distance from KSR1 profile": 1.68}
{"gene symbol": "MAP3K4 (GeneID 4216)", "mean correlation with KSR1 profile": 0.529, "mean distance from KSR1 profile": 1.74}
{"gene symbol": "KLK3 (GeneID 354)", "mean correlation with KSR1 profile": -0.358, "mean distance from KSR1 profile": 2.93}
{"gene symbol": "KRT3 (GeneID 3850)", "mean correlation with KSR1 profile": -0.198, "mean distance from KSR1 profile": 1.62}
{"gene symbol": "ACAD10 (GeneID 80724)", "mean correlation with KSR1 profile": -0.425, "mean distance from KSR1 profile": 3.02}
{"gene symbol": "RNF34 (GeneID 80196)", "mean correlation with KSR1 profile": 0.5, "mean distance from KSR1 profile": 1.65}
{"gene symbol": "TRIB1 (GeneID 10221)", "mean correlation with KSR1 profile": 0.484, "mean distance from KSR1 profile": 1.6}
{"gene symbol": "KIT (GeneID 3815)", "mean correlation with KSR1 profile": -0.468, "mean distance from KSR1 profile": 3.09}

Targets above whose target name starts with P or p (5):
{"gene symbol": "PACSIN1 (GeneID 29993)", "mean correlation with KSR1 profile": 0.0886, "mean distance from KSR1 profile": 1.31}
{"gene symbol": "PDX1 (GeneID 3651)", "mean correlation with KSR1 profile": -0.0809, "mean distance from KSR1 profile": 1.9}
{"gene symbol": "PLEKHG3 (GeneID 26030)", "mean correlation with KSR1 profile": -0.337, "mean distance from KSR1 profile": 3.01}
{"gene symbol": "PPM1B (GeneID 5495)", "mean correlation with KSR1 profile": -0.0657, "mean distance from KSR1 profile": 3.35}
{"gene symbol": "P2RY4 (GeneID 5030)", "mean correlation with KSR1 profile": 0.563, "mean distance from KSR1 profile": 2.41}
